Laboratory results reported in the supplement of paper PMC12889115.
The list shows a part of the results. These are raw signals, not scaled to a control.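 First-pass screen: polymyxin B was added at a level that permeabilizes the Salmonella outer membrane while sparing the inner membrane. DMSO wells, with and without polymyxin B, defined maximum growth. Because plates differed from one another, each plate's data were ranked separately and the compounds with the lowest OD600 were carried forward as hits.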

Tested on: Salmonella enterica serovar Typhimurium SL1344
Experiment: bacterial growth OD600 after 18 h with compound and polymyxin B; higher = more bacterial growth (less inhibition)
Settings: 50 µM, Mueller-Hinton broth

SMILES	bacterial growth OD600 (polymyxin B 0.75 µg/mL)	bacterial growth OD600 (polymyxin B 1 µg/mL)
O=C(NCC1CCCN(Cc2ccc(O)cc2)C1)c1ccc(F)cc1 (stereo unspecified)	0.802	–
CCN(CC)C(=O)C1CCCN(C2CCN(c3nc4ccccc4o3)CC2)C1 (stereo unspecified)	0.937	–
CCCCC1CN(CCNC(=O)Cc2cc(OC)c(OC)c(OC)c2)Cc2ccccc2O1 (stereo unspecified)	0.731	–
CC(C)CCNC(=O)C1CCCN(C2CCN(Cc3ccccc3)CC2)C1 (stereo unspecified)	0.837	–
CCOC(=O)C1(Cc2cccc(OC)c2)CCCN(S(=O)(=O)c2ccc(C)s2)C1 (stereo unspecified)	–	0.089
CN(C(=O)c1ccccn1)C(Cc1ccccc1)C1CCN(C(=O)c2csc3c2CCCC3)CC1 (stereo unspecified)	0.005	–
COC(=O)CCC(=O)NC1CCCc2c1cnn2-c1ccc(C)c(C)c1 (stereo unspecified)	0.756	–
O=C1O[C@@H]2CN(Cc3cccnc3)C[C@@H]2N1CCCc1ccc(F)cc1	0.873	–
O=C1CCCN1CC1CCN(c2ccc(-c3nc(C4CC4)no3)cn2)CC1	–	0.908
Cc1ccc(SC2CCN(C(=O)c3cn(Cc4ccccc4F)nn3)CC2)cc1	–	0.106
Cc1c(CN2Cc3ccccc3OC(c3ccccc3F)C2)cnn1C (stereo unspecified)	0.001	–
CCOc1cccc(CN2CCC(CCC(=O)Nc3ccc(OC)cc3OC)CC2)c1	–	0.886
CN(C(=O)c1cccc2nccnc12)C1CCCN(CCCc2ccccc2)C1 (stereo unspecified)	–	0.808
O=C(c1ccc(=O)[nH]n1)N1CCC(C2CCN(Cc3cccc(F)c3F)CC2)C1 (stereo unspecified)	0.983	–
Cc1cc(C)n(-c2cccc(CN(C)C(=O)C3CC(Cc4ccc(F)cc4)=NO3)c2)n1 (stereo unspecified)	0.462	–
CC(NC(=O)c1cn(CCC2CCCCC2)nn1)c1cnn(C)c1 (stereo unspecified)	–	0.844

Looked up above.
Value of O=C1O[C@@H]2CN(Cc3cccnc3)C[C@@H]2N1CCCc1ccc(F)cc1 under bacterial growth OD600 (polymyxin B 0.75 µg/mL): 0.873
Value of CN(C(=O)c1cccc2nccnc12)C1CCCN(CCCc2ccccc2)C1 (stereo unspecified) under bacterial growth OD600 (polymyxin B 1 µg/mL): 0.808

(further entries)

SMILES	bacterial growth OD600 (polymyxin B 0.75 µg/mL)	bacterial growth OD600 (polymyxin B 1 µg/mL)
COCC(=O)N1CCC(C(=O)Nc2cccc(-c3cccc(Cl)c3)c2)CC1	–	0.834
Cc1ccc(Oc2ncccc2CNC(=O)c2ccc3cc[nH]c3c2)cn1	–	1.07
C=C(C)CNC(=O)c1coc(COc2cccc3cccnc23)n1	–	0.953
O=C(CCn1cncn1)N(CC1CCN(C2Cc3ccccc3C2)CC1)CC1CCCO1 (stereo unspecified)	–	0.854
COc1cc(C)ccc1OCc1nc(C(=O)NCc2csc(C)n2)co1	0.803	–
COc1cccc(C(=O)N2CCN(C(=O)CCC3(Cc4ccc(SC)cc4)CCC(=O)N3)CC2)c1 (stereo unspecified)	0.785	–
CO[C@H]1[C@H](NC(=O)Cc2cccs2)c2ccccc2C12CCN(Cc1cc(F)ccc1F)CC2	0.751	–
CCn1cc(CN2CCC(C(Cc3ccccc3Cl)N(C)C(=O)c3ccco3)CC2)c(C)n1 (stereo unspecified)	0.825	–
CCNC(=O)NC(C)c1cnc(N2CCCCCCC2)nc1C (stereo unspecified)	0.551	–
CCOC(=O)CNC(=O)NC1CC(=O)N(Cc2ccccc2Cl)C1 (stereo unspecified)	–	1.08
O=C(NCc1ccccn1)c1cccc(OC2CCN(C(=O)C3CCCCC3)CC2)c1	–	0.819
CC(NC1CCN(c2ccc(NC(=O)Cc3cccc(Cl)c3)cc2)CC1)c1cccs1 (stereo unspecified)	0.835	–
C=CCN(C(=O)Cn1nnnc1CN1CCCCCC1)C1CCS(=O)(=O)C1 (stereo unspecified)	0.821	–
O=C(c1ccc(OC2CCN(Cc3ccc(Cl)s3)CC2)cc1)N1CCCC1	–	1.05
CCC(=O)NC1CC(=O)N(CCc2cccc(Cl)c2)C1 (stereo unspecified)	–	0.967
